Marks after values point to notes of the source that are not given here.
Experiment: Fatty acid contents analysis in gender-specific sera (GC/MSD)
Parameters: species or system bovine
Conditions: for fatty acid content in C-MS: castrated male serum; for fatty acid content in FS: female serum; for fatty acid content in MS: male serum

Row | Compound | fatty acid content in C-MS [mg/mL] | fatty acid content in FS | fatty acid content in MS
1 | CCCCCC=CCC=CCCCCCCCC(=O)O [9,12-octadecadienoic acid (C18:2n-trans), 9,12-octadecadienoic acid] | 1381.56 ± 6.54 | 1314.35 ± 5.96 mg/mL | 1854.53 ± 6.06 mg/mL
2 | CCCCCCC=CCCCCCCCC(=O)O [9-Hexadecenoic acid (C16:1), 9-Hexadecenoic acid] | 46.01 ± 1.34 | 47.82 ± 0.92 mg/mL | 45.38 ± 1.17 mg/mL
3 | CCCCCCCCC=CCCCCCCCC(=O)O [9-octadecenoic acid (C18:1-cis), 9-octadecenoic acid] | 225.5 ± 2.61 | 214.25 ± 2.51 mg/mL | 147.47 ± 1.24 mg/mL
4 | CCCCCCCCC=CCCCCCCCC(=O)O [9-octadecenoic acid (C18:1-trans), 9-octadecenoic acid] | 192.90 ± 1.97 | 177.37 ± 1.83 mg/mL | 198.77 ± 2.32 mg/mL
5 | CCCCCCCCCCCCCCCCCCCC(=O)O [Arachidic acid (C20:0), Arachidic acid] | 2.38 ± 0.23 | 7.17 ± 0.37^a mg/mL | 3.25 ± 0.32 mg/mL
6 | CCCCC/C=C\C/C=C\C/C=C\C/C=C\CCCC(=O)O [Arachidonic acid (C20:4n6), Arachidonic acid] | 279.90 ± 2.02 | 234.56 ± 1.47 mg/mL | 234.21 ± 0.73 mg/mL
7 | CCCCCCCCCCCCCCCCCCCCCC(=O)O [Behenic acid (C22:2), Behenic acid] | 75.14 ± 1.09 | 47.90 ± 0.83^a mg/mL | 36.00 ± 1.25^a mg/mL
8 | CCCCCCCC(=O)O [Caprylic acid (C8), Caprylic acid] | 0.88 ± 0.14 | 0.46 ± 0.14 mg/mL | 0.64 ± 0.13 mg/mL
9 | CCCCCCCCCC(=O)O [Carpric acid (C10), Carpric acid] | 0.80 ± 0.11 | 0.59 ± 0.13 mg/mL | 1.00 ± 0.19 mg/mL
10 | CCCCCCCCCCCC(=O)O [Lauric acid (C12), Lauric acid] | 3.78 ± 0.33 | 1.56 ± 0.24 mg/mL | 3.32 ± 0.17 mg/mL
11 | CC/C=C/CCCCCCCCCC(=O)OC [Methyl E-11-tetradecenoate (C14:1), Methyl E-11-tetradecenoate] | 2.76 ± 0.27 | 1.41 ± 0.20^a mg/mL | 2.16 ± 0.21 mg/mL
12 | CCCCCCCCCCCCCC(=O)O [Myristic acid (C14:0), Myristic acid] | 17.92 ± 0.52 | 15.05 ± 0.53 mg/mL | 16.86 ± 0.33 mg/mL
13 | CCCCCCCC/C=C\CCCCCCCCCCCCCC(=O)O [Nervonic acid (C24:1), Nervonic acid] | 154.75 ± 1.59 | 90.72 ± 1.02^a mg/mL | 85.78 ± 1.67^a mg/mL
14 | CCCCCCCCCCCCCCCCCCCCCCCC(=O)O [Tetracosanoic acid (C24:0), Tetracosanoic acid] | 66.62 ± 1.07 | 33.41 ± 0.93^a mg/mL | 43.45 ± 1.14 mg/mL
15 | CCCCCCCCCCCCCCCCCCCCCCC(=O)O [Tricosanoic acid (C23:0), Tricosanoic acid] | 142.86 ± 1.53 | 80.93 ± 0.93^a mg/mL | 81.84 ± 1.67^a mg/mL
16 | CCCCCCCCCCCCC(=O)O [Tridecanoic acid (C13), Tridecanoic acid] | 1.39 ± 0.27 | – | 0.32 ± 0.15 mg/mL
17 | CCCCCCCCCCC(=O)O [Undecanoic acid (C11), Undecanoic acid] | 1.13 ± 0.15 | 0.22 ± 0.15^a mg/mL | not detected
18 | Eicosadienoic acid [Eicosadienoic acid (C20:2n)] | 10.43 ± 0.40 | 22.48 ± 0.63^a mg/mL | 12.81 ± 0.39 mg/mL
19 | Eicosatrienoic acid [Eicosatrienoic acid (C20:3n3)] | 367.90 ± 3.90 | 351.66 ± 2.90 mg/mL | 242.55 ± 2.60 mg/mL
20 | Eicosenoic acid [Eicosenoic acid (20:1n)] | 5.36 ± 0.22 | 7.18 ± 0.20 mg/mL | 5.53 ± 0.25 mg/mL

— patent US20120028359A1, “PRODUCTION PROCESS OF GENDER-SPECIFIC SERUM AND BIOMARKER USING THE SERUM” (priority 2009, published 2012)
